Data from paper PMC7082118 (Oncotarget, 2020).
Read-outs that look alike come from different tables or passages of the source.

Assays:
FLT3 signaling = assay: FLT3 inhibitor washout experiment in MOLM-14 cells; assay type: cell-based, human
EOL-1 cells = assay: Cell viability assay (CellTiter-Glo 2.0); assay type: cell-based; conditions: Homo sapiens, EOL1, 72 h, read-out: IC50, cell viability
Method: (§1) Human AML cell lines MV4-11, Kasumi-1, HL-60, and THP-1 were purchased from the American Type Culture Collection (Manassas, Virginia, USA). MV4-11 cells were cultured in Iscove’s Modified Dulbecco’s Medium (IMDM; Thermo Fisher Scientific, Waltham, Massachusetts, USA) supplemented with 10% (vol/vol) heat-inactivated fetal bovine serum (FBS; GE Healthcare Ltd, Chicago, Illinois, USA). […] HL-60 cells were cultured in IMDM supplemented with 20% (vol/vol) heat-inactivated FBS. […] Human AML cell lines, MOLM-13, MOLM-14, EOL-1, and OCI-AML3, were purchased from Leibniz-Institut DSMZ-Deutsche Sammlung von Mikroorganismen und Zellkulturen GmbH.
(§2) The amount of ATP in viable cells was quantified as a luminescent signal using the CellTiter-Glo 2.0 Assay (Promega Corporation, Madison, Wisconsin, USA) and EnVision (PerkinElmer Inc, Waltham, Massachusetts, USA) to determine the number of viable cells according to the manufacturers’ instructions.

HL-60 cells = assay: Cell viability assay (CellTiter-Glo 2.0); assay type: cell-based; conditions: Homo sapiens, HL-60, 72 h, read-out: IC50, cell viability
Method: as §1, §2

Kasumi-1 cells = assay: Cell viability assay (CellTiter-Glo 2.0); assay type: cell-based; conditions: Homo sapiens, Kasumi 1, 72 h, read-out: IC50, cell viability
Method: as §1, §2

MOLM-13 cells = assay: Cell viability assay (CellTiter-Glo 2.0); assay type: cell-based; conditions: Homo sapiens
Method: as §1, §2

MV4-11 cells = assay: Cell viability assay (CellTiter-Glo 2.0); assay type: cell-based; conditions: Homo sapiens, MV4-11, 72 h, read-out: IC50, cell viability
Method: as §1, §2

MOLM-14 cells = assay: Cell viability assay (CellTiter-Glo 2.0); assay type: cell-based, human; conditions: read-out: IC50, cell viability
Method: as §1, §2

MOLM-14-MR2 tumors = assay: MOLM-14-MR2 xenograft mouse model; conditions: in vivo, po
[1] = test system: midostaurin-resistant FLT3-ITD tumors; conditions: mouse, in vivo
MOLM-14-MR cells = assay: cells; conditions: Homo sapiens, 72 h, read-out: IC50, cell viability
MOLM-14-MR2 cells = assay: cells; conditions: Homo sapiens, 72 h, read-out: IC50, cell viability
MOLM-13-QR cells = assay: cells; conditions: Homo sapiens, read-out: IC50, cell viability
MOLM-13-QR2 cells = assay: cells; conditions: Homo sapiens, read-out: IC50, cell viability
[2] = test system: midostaurin-resistant MOLM-14 cells; assay: cells; conditions: Homo sapiens, MOLM-14, read-out: IC50 against midostaurin-resistant MOLM-14 cells
MV4-11 tumors = assay: MV4-11 xenograft mouse model; conditions: in vivo, po

Question: How did the “Long-term durability of inhibition of FLT3 signaling after compound withdrawal” value (FLT3 signaling) turn out when `CO[C@@H]1[C@H](N(C)C(=O)c2ccccc2)C[C@H]2O[C@]1(C)n1c3ccccc3c3c4c(c5c6ccccc6n2c5c31)C(=O)NC4` [Midostaurin, midostaurin] was run?
Answer: no longer able to inhibit FLT3 signaling at 24 hours

Question: What about the IC50 (EOL-1 cells) of the same molecule?
Answer: 7.86 nM

Question: And the IC50 (HL-60 cells)?
Answer: 806 nM

Question: What about the IC50 (Kasumi-1 cells) of the same molecule?
Answer: 185 nM

Question: What about the IC50 (MOLM-13 cells; MOLM-13, 72 h, read-out: IC50, cell viability) of the same molecule?
Answer: 10.7 nM

Question: What about the IC50 (MOLM-13 cells; MOLM-13, read-out: IC50, cell viability) of the same molecule?
Answer: 7.4 nM

Question: What about the IC50 (MV4-11 cells) of the same molecule?
Answer: 7.56 nM

Question: What about the IC50 (MOLM-14 cells) of the same molecule?
Answer: 10.1 nM

Question: What about the “EC50, tumor growth inhibition” value (MOLM-14-MR2 tumors) of the same molecule?
Answer: > 100 mg/kg

Question: And the “EC50, tumor growth inhibition” value [1]?
Answer: > 100 mg/kg

Question: What about the IC50 (MOLM-14-MR cells) of the same molecule?
Answer: 106 nM

Question: And the IC50 (MOLM-14-MR2 cells)?
Answer: 45.1 nM

Question: And the IC50 (MOLM-13-QR cells)?
Answer: 38.6 nM

Question: What about the IC50 (MOLM-13-QR2 cells) of the same molecule?
Answer: 24.2 nM

Question: What about the IC50 [2] of the same molecule?
Answer: 45.1 to 106 nM

Question: What about the “EC90, tumor growth inhibition” value (MV4-11 tumors) of the same molecule?
Answer: 19.34 mg/kg
